# Laboratory results reported in PubChem BioAssay AID2685 (National Center for Advancing Translational Sciences (NCATS), 2010).
# This is one part of the list. These are further read-outs of the screen, such as a control signal, another cell line or another target. No call is given for them. Most of these compounds were active or inconclusive in the main read-out, so they are no random draw. Potencies come from curve fits of mixed quality, noted in brackets.
# Assay: qHTS Assay for Lipid Storage Modulators in Drosophila S3 Cells;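 for cell number change: cells counted by Cell Tracker Red CMTPX staining in the red channel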
# Settings: BODIPY lipid droplet fluorescence, 18-24 h; for cell number change: measured here: cell count max response, cells fed with added oleic acid
# Summary of the method: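 Drosophila S3 cells got compounds at several concentrations plus oleic acid (400 uM solution). Laser-scanning cytometry with 488 nm excitation read lipid droplets at 500-530 nm and cells at 575-640 nm. Percent activity was relative to 20 uM Triacsin C.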
# [1] = measured here: cell number channel AC50, cells fed with added oleic acid
# [2] = measured here: lipid fluorescence (Fed channel) AC50, cells fed with added oleic acid
SMILES,cell number change,AC50 [1],AC50 [2]
C=CCSC1=NN2CCS(=O)(=O)N=C2S1,71.9%,–,–
N#C/C(=C/c1ccc([N+](=O)[O-])cc1)C(=O)Nc1ccccc1O,-5.79%,"6.51 µM [rising, single point]","32.6 µM [falling, single point]"
OC(COc1ccccc1)CN1CCN(Cc2ccc3c(c2)OCO3)CC1 (stereo not given),-0.919%,–,"0.184 µM [falling, partial curve, poor fit]"
CC1CCCC(NC(=O)COC(=O)c2cccnc2Cl)C1C (stereo not given),-44.2%,"29.1 µM [falling, single point]","20.6 µM [falling, single point]"
O=C(CN1C(=O)C2CCCCC2C1=O)Nc1cccc([N+](=O)[O-])c1 (stereo not given),-28.1%,"2.91 µM [falling, full curve, poor fit]",–
Cc1ccc(-c2c(C)sc3nc[nH]c(=O)c23)cc1C,-48.1%,"23.1 µM [falling, partial curve, poor fit]",–
COc1ccc(CCNC(=O)c2ccc(S(=O)(=O)N(C)c3ccccc3)cc2)cc1OC,2.17%,–,–
CN1CCC(N(C)S(=O)(=O)c2ccc(NC(=O)Cc3ccc(F)cc3)cc2)CC1,-21.9%,–,"29.1 µM [rising, single point]"
Cc1cc(/C=C2\SC(=S)NC2=O)c(C)[nH]1,–,"0.82 µM [falling, partial curve]","0.58 µM [falling, partial curve]"
CN(CC(=O)NCc1cccnc1)S(=O)(=O)c1ccc(F)cc1,7.66%,–,"16.4 µM [rising, partial curve]"
COc1ccc(-c2ccc(C#N)c(SCC(=O)Nc3sc4c(c3C#N)CCC4)n2)cc1OC,–,–,"0.461 µM [rising, partial curve, poor fit]"
COc1cc(OC)cc(C(=O)NCCC(c2ccccc2)c2ccccc2)c1,309%,"20.6 µM [rising, single point]","29.1 µM [rising, single point]"
CCN(CC)S(=O)(=O)c1ccc(Cl)c(NC(=O)CCCCl)c1,11.8%,–,–
CC(=O)Nc1nc(S(=O)(=O)c2ccc(C)cc2)c(Cl)s1,–,–,"6.51 µM [falling, single point]"
COc1ccc(C(=O)Nn2cnc3ccccc3c2=O)c(OC)c1,29.6%,"4.61 µM [rising, full curve, poor fit]","5.8 µM [rising, full curve]"
Cc1nc2ccc([N+](=O)[O-])cc2c(=O)n1Cc1ccc(Cl)cc1,-7.25%,–,"29.1 µM [falling, single point]"
COc1ccc(CCn2c(-c3ccccc3)nc3c(c(=O)c4ccccc4n3C)c2=O)cc1,20.9%,–,"7.31 µM [rising, full curve, poor fit]"
Cn1c(CN2CCN(C(=O)c3ccccc3)CC2)nc2cc([N+](=O)[O-])ccc21,–,–,"6.51 µM [rising, single point]"
O=C1CCC(=O)N1c1ccccc1OS(=O)(=O)c1ccccc1,5.87%,–,"29.1 µM [rising, single point]"
O=C(Nc1cccc(Cl)c1)c1cnc[nH]1,12.3%,–,"0.00517 µM [rising, full curve, poor fit]"

# Molecules shown so far containing a cyano group, in the order listed:
SMILES,cell number change,AC50 [1],AC50 [2]
N#C/C(=C/c1ccc([N+](=O)[O-])cc1)C(=O)Nc1ccccc1O,-5.79%,"6.51 µM [rising, single point]","32.6 µM [falling, single point]"
COc1ccc(-c2ccc(C#N)c(SCC(=O)Nc3sc4c(c3C#N)CCC4)n2)cc1OC,–,–,"0.461 µM [rising, partial curve, poor fit]"

# Continuation.

SMILES,cell number change,AC50 [1],AC50 [2]
CC1(C)NC(=O)N(CC(O)COC2CCCCC2)C1=O (stereo not given),-18.3%,–,"29.1 µM [rising, single point]"
COc1ccc(CNC(=O)CN(c2cc(C)cc(C)c2)S(=O)(=O)c2c(C)[nH]c(=O)[nH]c2=O)cc1,-21.3%,–,–
CCOC(=O)c1ccccc1NC(=O)CSc1ccc(-c2ccccn2)nn1,-10.4%,–,"20.6 µM [falling, single point]"
O=C(CSc1ncccn1)N/N=C/c1cccc(OC2CSC2)c1,-22.3%,–,"29.1 µM [falling, single point]"
O=C(c1cccnc1)N1C2CCC1CC(O)(c1ccc(F)cc1)C2 (stereo not given),19.8%,–,"0.00461 µM [falling, full curve, poor fit]"
Cc1cccc(NC(=O)CN(C)S(=O)(=O)c2cccs2)c1,-19.1%,–,"1.84 µM [rising, partial curve]"
Cc1ccc(C(=O)NCc2ccc3c(c2)OCO3)cc1S(=O)(=O)N1CCCCC1,–,"0.731 µM [rising, partial curve, poor fit]",–
COc1ccccc1C(=O)Nc1ccc(S(=O)(=O)Nc2cnc3ccccc3n2)cc1,-2.78%,–,"29.1 µM [falling, partial curve, poor fit]"
Cc1ccc(SCC(=O)Nc2ccc(N3CCN(c4ccccc4)CC3)c(F)c2)cc1,22.2%,–,–
CCCOC1CCCN(C(=O)CCc2nnc(CCCCc3ccccc3)o2)C1 (stereo not given),-14.4%,–,"6.51 µM [falling, single point]"
COc1ccc(OC)c(CN2CCN(C(=O)CCC(=O)c3cccs3)CC2)c1,39.9%,"14.6 µM [rising, partial curve]","14.6 µM [rising, partial curve]"
Cc1ccc(C(=O)CSC2=C(C#N)C(c3ccco3)C3=C(CCCC3=O)N2)cc1 (stereo not given),-20.3%,–,"1.16 µM [rising, single point]"
O=C(NC(c1ccc(Cl)cc1)c1c(O)ccc2ccccc12)c1ccccc1 (stereo not given),-65.4%,"0.291 µM [falling, full curve, poor fit]","1.03 µM [falling, full curve]"
O=C(NC1CCCC1)c1cccc2c1C(=O)c1ccc(N3CCCCC3)cc1S2(=O)=O,-49.5%,"5.8 µM [falling, full curve]",–
O=C(NCCCc1ccc(F)cc1)C1CCC(=O)N(CCN2CCOCC2)C1 (stereo not given),24.8%,–,"5.17 µM [falling, partial curve]"
Nc1ccn(-c2ncc(C(F)(F)F)cc2Cl)c(=O)n1,15.4%,"0.411 µM [falling, single point]",–
COc1ccc(Cc2nnc(NC(=O)CSc3ccc(C)cc3)s2)cc1OC,-38.1%,"1.16 µM [falling, full curve]","4.11 µM [falling, partial curve]"
COc1cc([N+](=O)[O-])ccc1NC(=S)NC(=O)CC(C)(C)C,34.5%,–,"23.1 µM [rising, partial curve]"
CCN(C(=O)c1cccc(Br)c1)C1CCS(=O)(=O)C1 (stereo not given),-8.34%,–,–
O=C(CNC(=O)c1ccc(OC(F)F)cc1)Nc1cccc(S(=O)(=O)N2CCCC2)c1,-50%,"4.61 µM [falling, partial curve, poor fit]",–

SMILES,cell number change,AC50 [1],AC50 [2]
CCOc1ccc(C(O)c2nccn2Cc2ccccc2)cc1 (stereo not given),1.08%,–,"6.51 µM [rising, single point]"
COc1ccc(C2(C(=O)Nc3nncs3)CCCC2)cc1,–,–,"5.8 µM [falling, partial curve]"
Cc1c(C(=O)OC2CCCC2)[nH]c2c1C(=O)CC(c1ccco1)C2 (stereo not given),–,"6.51 µM [rising, single point]",–
COc1cc2c(cc1OC)CN(C(=O)CSc1n[nH]c(N)n1)CC2,–,"2.06 µM [rising, single point]",–
COc1ccc(N2CC(C(=O)NC3CC(C)(C)NC(C)(C)C3)CC2=O)cc1 (stereo not given),21%,–,"29.1 µM [falling, single point]"
CSc1ccc2c(c1)C(N1CCN(C)CC1)Cc1ccccc1S2 (stereo not given),-19.9%,–,"7.31 µM [falling, partial curve]"
CC(C)CC(c1nnnn1C1CCCCC1)N1CCN(c2ncccn2)CC1 (stereo not given),0.0687%,–,"0.116 µM [falling, single point]"
Cc1ccc2nc3c(cc(C(=O)NCc4ccco4)c(=N)n3C3CCCC3)c(=O)n2c1,10.5%,–,–
Cc1ccc(Nc2cc(C)nc3ccc(C)cc23)cc1,-10.2%,–,"18.4 µM [falling, single point]"
CC(C(=O)NCC1CCCCC1)N1CCN(S(=O)(=O)c2ccccc2F)CC1 (stereo not given),-16.7%,"6.51 µM [falling, single point]","4.11 µM [falling, full curve, poor fit]"
CCOC(=O)C(NC(=O)c1cccnc1)(Nc1cccc(C)n1)C(F)(F)F (stereo not given),-4.42%,–,–
C=CCN1CCN(C(=O)c2ccc3c(c2)OCO3)CC1,22.1%,–,"0.0731 µM [rising, full curve]"
CC(C)c1ccccc1OCC(=O)Nc1ccc2[nH]ncc2c1,-27.1%,–,"6.51 µM [rising, single point]"
Cc1c(C(=O)NCc2cccs2)oc2ccc(Br)cc12,6.71%,–,–
CCNC(=O)N1CCN(S(=O)(=O)c2ccc3c(c2)OCCCO3)CC1,13.1%,–,"2.06 µM [rising, single point]"
O=C(N/C(=C\c1cccnc1)C(=O)N1CCC(O)CC1)c1ccccc1,21.8%,–,"0.206 µM [rising, single point]"
COc1ccc(OC)c(NC2=NC3(CCCCC3)N=C(N)N2)c1,-0.547%,–,"4.11 µM [falling, full curve, poor fit]"
CCOC(=O)Cn1c(C)c(Br)c(COC)c(C#N)c1=O,19.4%,"1.16 µM [rising, full curve, poor fit]","29.1 µM [rising, single point]"
C/C(N)=C(/C#N)C(=O)COC(=O)CCS(=O)(=O)c1ccccc1,-39.7%,"5.17 µM [falling, full curve]","18.4 µM [falling, partial curve]"
CCOC(=O)c1c(NC(=O)c2ccoc2C)sc(C)c1C,28%,"1.16 µM [rising, full curve, poor fit]","1.64 µM [rising, partial curve]"
